± gives the standard deviation of the averaged measurements. The list shows a part of the results. Single values are uncertain, as repeats are few or missing.
tested on: RAW 264.7 macrophages infected with S. aureus JE2-lux; experiment: host macrophage viability (CellTiter-Fluor) relative to DMSO vehicle; higher = more viable host cells; settings: 10 µM; treatment time 4 h; gentamicin 50 µg/ml

SMILES	host macrophage viability
CN(C)C(=O)c1csc2nc(-c3ccc(NC(=O)c4ccc(Cl)nc4)cc3)cn12	123%
CCC(CC)C(=O)N1CC(=O)Nc2ccc(Cl)cc2C1c1ccc(F)cc1 (stereo not given)	120%
Cc1nn(C)cc1C(=O)NC1CCN(c2nc3c(c(=O)[nH]2)CCCC3)CC1	120%
Cc1ccc2nc(-n3nc(C)c4c3NC(=O)CC4c3ccc(F)c(F)c3)sc2c1 (stereo not given)	120%
O=C(CSc1nc2c(c(=O)n1-c1ccc(F)cc1)SCC2)NCC1CCCO1 (stereo not given)	101%
Cc1cc(Cl)ccc1OCC(=O)N/N=C1/C(=O)Nc2ccc(Br)cc21	126%
Oc1c(C(c2ccco2)N2CCC3(CC2)OCCO3)sc2ncnn12 (stereo not given)	126%
CC1C(=O)N2CCCc3cc(NC(=O)COc4ccc5ccccc5c4)cc1c32 (stereo not given)	125%
CCOC(=O)c1ccc(NC(=O)CSc2nc(=O)n3cc(C)ccc3n2)cc1	108%
COc1cc2nc(Nc3cccc(Cl)c3)sc2cc1OC	107%
O=C(CSc1nc2ncccc2o1)NCC1CCCO1 (stereo not given)	124%
O=C(Nc1ccccc1Oc1ccccc1)c1ccc2ncsc2c1	113%
O=C(Cc1cccc2ccccc12)Nc1nnc(-c2ccc3c(c2)OCCO3)o1	134%
O=C(CSc1ccc2nnc(-c3ccncc3)n2n1)OCc1ccccc1	98.3%
COc1ccccc1C(=O)N1CCN(c2oc(/C=C/c3ccc(C)cc3)nc2C#N)CC1	135%
O=C(c1cc(C2CC2)on1)N1CCCC1c1cccs1 (stereo not given)	109%
CC1CN(C)CCC1CCc1ccc(NC(=O)Cn2ncc3ccccc3c2=O)cc1 (stereo not given)	144%
O=C(NC1CCCCNC1=O)C1CCN(Cc2noc(-c3ccc(F)cc3)n2)CC1 (stereo not given)	111%
COc1ccccc1OCC(=O)NCCc1sc(-c2ccc(F)cc2)nc1C	113%
CCOC(=O)c1cc([N+](=O)[O-])sc1NC(=O)c1ccc(S(=O)(=O)N(C)C)cc1	92.4 ± 2.9%
Clc1ccc2nc(N3CCN(c4nc5ccccc5s4)CC3)sc2c1	101 ± 3%
CC1CCCN(CCCNC(=O)Cn2cccc2-c2nc(-c3ccc(Cl)cc3)cs2)C1 (stereo not given)	87.3%
COc1ccc(-c2nn(CCCC(=O)NCCc3ccc(Cl)cc3)c(=O)c3noc(C)c23)cc1	106%
CC(CCc1ccccc1)NC(=O)C1CCN(c2ccc3nnc(-c4ccccc4F)n3n2)CC1 (stereo not given)	122%
O=C(NNc1nc2c(Cl)cccc2s1)c1c(F)cccc1F	118 ± 9.1%
COc1ccc(N2C(=O)C3N=NN(CC(=O)Nc4ccc(C)cc4C)C3C2=O)cc1Cl (stereo not given)	92.1%
COCCCNC(=O)c1cncc(-c2ccc(C)cc2)c1	95.1%

4 structures out of the list, arranged by length of the SMILES, rising:
SMILES	host macrophage viability
O=C(Nc1ccccc1Oc1ccccc1)c1ccc2ncsc2c1	113%
O=C(CSc1ccc2nnc(-c3ccncc3)n2n1)OCc1ccccc1	98.3%
CCOC(=O)c1ccc(NC(=O)CSc2nc(=O)n3cc(C)ccc3n2)cc1	108%
COc1ccc(-c2nn(CCCC(=O)NCCc3ccc(Cl)cc3)c(=O)c3noc(C)c23)cc1	106%

The list goes on:

SMILES	host macrophage viability
CC(=O)c1ccc(NC(=O)Nc2c[nH]c3ccccc23)cc1	135%
CCOc1ccc(-c2noc(CSc3nc4cc5c(cc4c(=O)n3C3CCCC3)OCO5)n2)cc1	135%
CC(C)(C)c1nc2ccccc2c2nn(CC(=O)NCC3CC3)c(=O)n12	133%
Cc1c(C)n(-c2cc(F)cc(F)c2)c2ncnc(Cl)c12	114%
COc1cccc(N(CC(=O)NCc2ccc(F)cc2)C(=O)CN2C(=O)COc3ccccc32)c1	110%
O=C(O)c1cccnc1SCc1cc2c(cc1Cl)OCO2	123%
CC1C(=O)N2CCCc3cc(NC(=O)C(=O)NCc4cccs4)cc1c32 (stereo not given)	112%
Cc1ccc2c(C(O)CN3CCC4(CC3)CC(O)c3ccccc3O4)c(C)[nH]c2c1 (stereo not given)	128%
CN(c1cncc(C(=O)NCc2ccco2)c1)S(=O)(=O)c1ccccc1	114%
NC(=O)c1ccsc1NC(=O)c1ccccc1I	104%
CCCS(=O)(=O)N1CCN(c2cc(N(C)C)nc(C)n2)CC1	107%
Cc1cc(C)c2sc(N3CCN(c4ccccc4)CC3)nc2c1	103 ± 8.7%
Cc1onc(-c2ccncc2)c1C(=O)NCC(c1ccc(F)cc1)N1CCCC1 (stereo not given)	110%
O=C(c1ccco1)N(CCCn1ccnc1)c1nc2ccc(Br)cc2s1	100%
O=c1[nH]c(=O)c2cc(S(=O)(=O)Nc3cccc(-c4ccc(F)cc4)c3)ccc2[nH]1	110%
Cc1sc(NC(=O)CN(Cc2ccccc2)C(=O)c2ccco2)c(C(N)=O)c1C	109%
Cc1ccc(C(=O)NC2CC3CCC(C2)N3C(=O)Nc2ccccc2)cc1 (stereo not given)	107%
Cn1c2c(c(=O)n(C)c1=O)C(c1ccccc1Br)C1=C(CCCC1=O)N2 (stereo not given)	99.4%
Cc1ccc(NC(=O)CSc2ccnc3c2c(=O)n(C)c(=O)n3C)cc1Cl	124%
Cc1ccc2oc(SCc3noc(CCC(=O)Nc4nncs4)n3)nc2c1	117%
COc1ccccc1NC(=O)CCCn1c(=S)[nH]c2ccccc2c1=O	119%
COc1ccc(-c2nc3c4c(C)c(C)n(C5CCCCC5)c4ncn3n2)cc1	92.3%
Cc1nnc(SCC(=O)N2CCc3ccccc32)[nH]c1=O	120%
Cc1nn(-c2ccccc2)c2sc(C(=O)NCCc3ccccc3)cc12	109%
O=C(O)c1cccnc1SC1CC(=O)N(CCc2ccccc2)C1=O (stereo not given)	129%
Cn1cc(C(=O)Nc2nccs2)c2nn(-c3ccccc3)c(=O)c-2c1	112%
COc1ccc(Cl)cc1NC(=O)CSC1=NS(=O)(=O)c2cc(F)ccc2N1	119%

SMILES	host macrophage viability
COc1ccc(NC(=O)CC2SC(=N)NC2=O)cc1Cl (stereo not given)	138%
O=C(COC(=O)c1ccc2ccccc2n1)c1ccc(Cl)c(Cl)c1	111%
N#Cc1c(N)nc(SCC(=O)c2ccc(Br)cc2)c(C#N)c1-c1cccs1	133%
Cc1ccc2c(c1)C(O)(CC(=O)c1ccc(C)s1)C(=O)N2 (stereo not given)	122%
Clc1ccccc1-n1cc(-c2ccccc2)c2c(NCc3ccco3)ncnc21	120%
COc1ccc(Nc2ncnc3sc(C(=O)O)c(C)c23)c(OC)c1	112%
O=C(c1ccccc1)c1c2c3c(ccc(S(=O)(=O)O)c3[nH]c1=O)C(=O)c1ccccc1-2	88.3%
O=C(Nc1nc2ccc3ccccc3c2s1)c1coc2ccccc2c1=O	110 ± 8.5%
Clc1ccc2[nH]c3nc(SCc4nnc(-c5ccccc5)o4)nnc3c2c1	110%
C=CCOc1ccccc1NC(=O)c1[nH]nc2c1CCCCC2	123%
O=C(CCCc1ccccc1)Nc1c(C(=O)Nc2ccc3c(c2)OCCO3)oc2ccccc12	114%
CCOc1cccc(-c2cc(C(=O)N/N=C/c3ccccn3)[nH]n2)c1	121%
COc1ccc(CCn2nc(-c3cccnc3)oc2=O)cc1	120%
Cc1ccccc1OCC(=O)Nc1c(C(=O)Nc2ccc([N+](=O)[O-])cc2)oc2ccccc12	111 ± 17%
Cc1ccc(Cn2c(=O)c3nc(C(=O)NCc4ccco4)nn3c3ccc(C)cc32)cc1	133%
Cc1ccc(S(=O)(=O)Nc2ccc(O)c3ncccc23)cc1	116%
COc1ccc(CCNC(=O)c2cc(-c3ccc(F)cc3)nc3[nH]nc(-c4ccccc4)c23)cc1OC	114%
COc1ccc(CCNc2ncnc(N)c2[N+](=O)[O-])cc1OC	125%
CSc1cccc(NC(=O)Cn2cccc2-c2nc(-c3ccccc3)cs2)c1	98%
O=C(CSc1nnc2n(Cc3ccccc3F)c3ccccc3n12)NC1CCCCC1	116%
Cc1ccc(CCC(=O)Nc2ccc(Cl)c([N+](=O)[O-])c2)o1	113%
CCOC(=O)c1cc(C)nc2c1c(=O)n(Cc1nc(-c3ccc(Cl)cc3)oc1C)c(=O)n2C	116%
CCC(C)NC(=O)CSc1nc2cc(C)c(C)cc2cc1C#N (stereo not given)	101%
O=C(O)CCN1C(=O)C2C3CC(C2C1=O)C1C(c2ccc(Cl)cc2)c2sc(=O)[nH]c2SC31 (stereo not given)	114%
O=C(NCCCn1ccnc1)c1ncoc1-c1ccccc1C(F)(F)F	119%
Cc1ccc(Cn2nnc(C(=O)O)c2C(=O)O)cc1	125%
CCc1cccc(C)c1NC(=O)Cn1c(=O)cc(C(F)(F)F)c2c(C)nn(C)c21	99.2%

SMILES	host macrophage viability
COC(=O)c1c(-c2cccc(F)c2)noc1NC1CCCc2ccccc21 (stereo not given)	111%
Cc1ccc(/C=C/c2nc(C#N)c(N3CCN(C(=O)COc4ccc(C)cc4)CC3)o2)cc1	149%
CCC(=O)N1CCN(c2nc3ccc(C)cc3cc2-c2noc(-c3ccccc3)n2)CC1	118%
CC(C)c1ccc(NC(=O)c2cc(C(F)(F)F)n(C)n2)cc1	137%
COc1ccc(NC(=O)C2CCN(c3nc4ccccc4s3)CC2)c(OC)c1	109%
COc1cccc(CNC(=O)c2noc3c2CSc2ccccc2-3)c1	119%
CCn1cc(C2=NOC(C(=O)NCc3ccccn3)C2)c(C)n1 (stereo not given)	105%
Cc1nn(C)c(C)c1NC(=O)c1ncoc1-c1ccc(F)cc1	134%
Cc1cccc2sc(NNC(=O)c3ccc(N(C)C)cc3)nc12	116 ± 3.6%
O=C1CC(c2ccc(Br)cc2)c2cnn(-c3nc4ccccc4s3)c2N1 (stereo not given)	106%
O=C(Nc1cccc(-c2ccc3nncn3n2)c1)C(c1ccccc1)c1ccccc1	112%
Cc1oc(-c2ccno2)cc1S(=O)(=O)Nc1ccc(Br)cc1F	112%
Cc1nnc(NC(=O)CSc2nnc3ccc(-c4ccncc4)nn23)s1	138%
O=C(CC1CCN(C(=O)c2cc3ccccc3[nH]2)CC1)NC1CC1	97.9%
O=C(CSc1nccc2ccccc12)Nc1ccccc1C(F)(F)F	104%
COc1ccc(C(=O)N(Cc2nc3[nH]c(C)cc(=O)n3n2)c2ccc(C)cc2)cc1OC	89.4%
Cc1nc(N2CCCC2)c2c(C)c(C(=O)Nc3cccc(F)c3)sc2n1	105%
COc1ccccc1NC(=O)c1nc(Nc2cccc(C)c2)c2ccccc2n1	89.5%
Cc1ccc(Cn2nnc3c(O)nc(Cn4nnc(-c5ccc(Cl)cc5)n4)nc32)cc1	115%
Cc1cc(C)nc(NC(=O)CCCn2nnc3cc(S(=O)(=O)N(C)C)ccc32)n1	129%
C=CCOC(=O)C1=C(C)NC(SCC(=O)OCC)=C(C#N)C1c1cccs1 (stereo not given)	133%
CCCc1nc(SCC(=O)c2ccc(Cl)cc2)c2c(=O)n(C)c(=O)n(C)c2n1	118 ± 5.2%
Cc1ncsc1C(=O)N1CCCC(c2nc3ccccc3c(=O)[nH]2)C1 (stereo not given)	112%
O=C(CSc1nccc2ccccc12)Nc1c[nH]c2ccccc12	138%

Reference: the supplement of paper PMC12578635
